Test results published in publication PMC12040169 (PLOS Biology, 2025).
This is one part of the list.

System: T1, CTL2-GFP (C. trachomatis L2/434/Bu, GFP-expressing)
T1 construct: L2/434/Bu, GFP-expressing
Set-up: species or system HeLa; Intracellular C. trachomatis growth in HeLa cells, bulk GFP fluorescence relative to DMSO
Conditions: bulk GFP, single well; 28.5 h, 10 µM; inhibitor

| SMILES | % of control remaining |
| --- | --- |
| CCn1c(SCC(=O)Nc2ccc([N+](=O)[O-])cc2)nnc1C(NC(=O)c1ccccc1)C(C)C (centres unmarked) [CBK107508] | 110.837% |
| COc1ccc(NC(=O)C2CC3CCC2C3)cc1S(=O)(=O)Nc1ccc(Cl)cc1 (centres unmarked) [CBK297945] | 90.1225% |
| CC(=O)Nc1cccc(CN(CCCCO)C2CC2)c1 [CBK304806] | 106.171% |
| CCCc1n[nH]c(=S)n1CC(=O)NCc1ccc(OCCC(C)C)c(OC)c1 [CBK297743] | 162.42% |
| COc1ccc([C@@]23CC[C@@H](NC(=O)Nc4ccc5ccccc5c4)C[C@@H]2N(C)CC3)cc1OC [CBK034181T] | 104.806% |
| N#Cc1ccccc1Cn1ccc2c(N3CCNCC3)cccc21 [CBK200015C] | 127.483% |
| CSc1nc(N)c2nccnc2n1 [CBK025779] | 100.166% |
| COc1ccc(C)cc1NC(=S)NCc1cnn(C)c1 [CBK267025] | 129.6% |
| CC1CN(CCNCc2cn(C)nc2-c2cccnc2)CC(C)O1 (centres unmarked) [CBK305151] | 123.707% |
| CCCc1[nH]nc(O)c1CCc1cccc(OC)c1OC [CBK075078] | 134.603% |
| NC(=O)N/N=C/c1cc(Br)cs1 [CBK026434] | 99.0543% |
| O=C(CCCc1nc(-c2ccccc2Cl)no1)Nc1cccnc1 [CBK269122] | 172.093% |
| FC(F)(F)c1ccnc(SCCc2ccncc2)n1 [CBK105302] | 167.6% |
| CCNC(=S)N1CC[C@@H]2N(C)CC[C@]2(c2ccc(OC)c(OC)c2)CC1 [CBK059113T] | 130.746% |
| O=C(COC(=O)c1cc(-c2ccc(Cl)cc2)nc2ccccc12)c1cccc([N+](=O)[O-])c1 [CBK293923] | 168.819% |
| O=C(COc1ccc(F)cc1)N1CCC2(CCNC2)C1 (centres unmarked) [CBK156691C] | 146.966% |
| Cc1ccc(S(=O)(=O)Nc2ccc(N3CCCNCC3)cc2N(C)S(C)(=O)=O)cc1 [CBK000017C] | 103.46% |
| O=C(COC(=O)c1ccc(Cl)c(Cl)c1)c1ccc(Oc2ccc([N+](=O)[O-])cc2)cc1 [CBK264821] | 103.323% |
| Cc1nc2n(CCN3CCCCC3)c3ccccc3n2n1 [CBK278258C] | 95.5404% |
| C/C(=N\NC(=O)CCc1c(C)n[nH]c1C)c1ccc(N)cc1 [CBK262935] | 125.706% |
| COc1cnc(-c2ccc(Cl)cc2Cl)c(NC(=O)Cc2ccccc2)n1 [CBK145398] | 115.213% |
| O=C(c1ccncc1)N1CCCC(c2cc3ccccc3cn2)C1 (centres unmarked) [CBK285166] | 121.058% |
| CCc1cc(C(=O)N2CCC(Oc3ccc(F)cc3)CC2)n(C)n1 [CBK282034] | 96.0619% |
| CN(C)c1ccc(-c2cc(NCCc3ccncc3)ncn2)cc1 [CBK090849] | 140.025% |
| CC1CCc2nn(CCNC(=O)C3CCCC3)c(=O)cc2C1 (centres unmarked) [CBK284484] | 147.737% |
| Oc1cc2cccnc2nc1-c1ccccc1 [CBK073697] | 88.921% |
| O=C1Nc2ccccc2C1Cc1cccc(OC(F)F)c1 (centres unmarked) [CBK287892] | 106.233% |

| SMILES | % of control remaining |
| --- | --- |
| O=C(NC(=S)Nc1ccc2oc(-c3cccc4ccccc34)nc2c1)c1ccco1 [CBK263691] | 100% |
| CCn1ncc(CN2CCC(c3onc4c3CCCC4)CC2)c1C [CBK284576] | 124.586% |
| Cc1cc(NC(=O)c2cccs2)nc2c1c(=O)oc1ccccc12 [CBK287439] | 158.289% |
| Cc1nc(CN2CCCC3(CCN(C(=O)c4ccoc4)C3)C2)cs1 (centres unmarked) [CBK132838] | 89.3282% |
| CCN1CCN(C(=O)c2csnn2)CC1 [CBK200376] | 102.835% |
| COc1ccc(Br)cc1C1CCCN1C(=O)Cc1cnccc1C (centres unmarked) [CBK304130] | 117.801% |
| CCCCn1c(S)nc2c(-c3ccccc3)c[nH]c2c1=O [CBK288505] | 64.2565% |
| CC(C)(C)CC(=O)N1C[C@@H]2C[C@H](C1)c1ccc(NC(=O)Nc3ccccc3)c(=O)n1C2 [CBK289176] | 150.032% |
| c1ccc(CN2CCN(c3nccnc3OCCN3CCOCC3)CC2)cc1 [CBK082885T] | 115.709% |
| COc1ccc(Br)cc1/C=N/NC(=O)C1CC(c2ccccc2)(c2ccccc2)C1 [CBK263218] | 109.866% |
| CS(=O)(=O)c1ccc(Nc2ccc3c(c2)COC2(CCN(C(=O)Cc4ccc(F)cc4F)C2)O3)cc1 (centres unmarked) [CBK131948] | 118.545% |
| CN(C)CC(C)(C)CNC(=O)C1=CC(=O)CC(C)(C)O1 [CBK153291] | 93.5548% |
| COc1ccc(Br)cc1CNCc1ccc(C(=O)O)cc1 [CBK269449C] | 142.008% |
| CS(=O)(=O)N1CCN(c2ccccc2NC(=O)c2cccnc2)CC1 [CBK267604] | 88.6087% |
| COc1ccc(CN2CCCN(S(=O)(=O)c3ccc(-c4ccccc4)cc3)CC2)cc1F [CBK063108] | 117.529% |
| O=C(O)c1ccccc1C(=O)Nc1ccc(Oc2cccc3ccccc23)cc1 [CBK265131] | 100% |
| O=C1NC(=O)C(CCCCN2CCCC3(CCN(C(=O)c4ccoc4)C3)C2)N1 (centres unmarked) [CBK132833] | 121.768% |
| CSc1ccccc1CNC(=O)c1ccc(C)nc1N1CCOCC1 [CBK106224] | 96.4714% |
| COc1ccc(Sc2ncccc2C(F)(F)F)cc1OC [CBK093760] | 100% |
| O=C(Nc1ccccn1)c1cc2ccccc2oc1=O [CBK287354] | 115.988% |
| CN(c1ncc(-c2cc3ccccc3o2)cc1C(=O)Nc1ccc2c(c1)OCO2)S(C)(=O)=O [CBK106464] | 125.388% |
| CN(Cc1ccccc1)S(=O)(=O)c1ccc(OCC(=O)O)cc1 [CBK276426] | 127.279% |
| CN(C)c1cccc(Nc2ccc(-c3cccc(C(=O)O)c3)cn2)c1 [CBK036879] | 196.777% |
| Cc1ccc(Oc2ccc(S(=O)(=O)N3CCOCC3)cc2C(=O)O)cc1 [CBK286748] | 106.211% |
| Cc1cccc(-c2noc(CN(C(=O)c3ccc4c(c3)OCO4)C(C)C)n2)c1 [CBK268817] | 105.602% |
| Cc1oc(NC(=O)CN(C)Cc2cccc(F)c2)c(C#N)c1C [CBK305609] | 133.418% |
| Cc1nn(-c2ccc(F)cc2)c(C)c1CNC(=O)CCC1CCCO1 (centres unmarked) [CBK281456] | 135.124% |

| SMILES | % of control remaining |
| --- | --- |
| CCC(CC)C(=O)N1CCC2(CC1)Nc1cccnc1-n1cccc12 [CBK284508] | 117.925% |
| Cc1cc(NC(=O)c2cscn2)c2ccccc2n1 [CBK116275] | 132.783% |
| O=c1[nH]c2ncc(-c3ccoc3)nc2n1Cc1cccs1 [CBK064647] | 230.188% |
| N#Cc1cccc(C(=O)N2CCC(NC(=O)c3ccc(F)cc3)CC2)c1 [CBK305717] | 104.093% |
| CCCN[C@@H]1CCc2cc(CNC(=O)c3ccc(C#N)cc3)ccc2C1 [CBK010211C] | 127.511% |
| Cc1cc2c(=O)n(CC(=O)NCc3ccco3)cnc2s1 [CBK071898] | 100% |
| Cc1ccccc1N1C(=O)/C(=C/c2cn(Cc3ccccc3[N+](=O)[O-])c3ccccc23)SC1=S [CBK265101] | 134.643% |
| FC(F)(F)c1ccnc(OCCN2CCNCC2)c1 [CBK113459] | 118.264% |
| O=C(CSc1nsc(SCC(=O)c2ccccc2)n1)c1ccccc1 [CBK264142] | 71.9872% |
| NNc1nc(-c2ccccc2)cc(-c2ccc(Br)cc2)n1 [CBK261795] | 122.265% |
| CS(=O)(=O)Nc1ccc2cc(-c3ccc(Oc4ccccc4)cc3)cnc2n1 [CBK085674] | 100% |
| COc1cc(NC(=O)N[C@@H]2CN(C)C[C@H]2c2ccc(OC)c(OC)c2)cc(OC)c1 [CBK081112] | 100.764% |
| Cc1cccc(C2(O)CCN(CC(O)c3ccccc3)CC2)c1 (centres unmarked) [CBK286325] | 116.102% |
| O=C(c1cc(F)cc(F)c1)N1CCC(c2cccnc2)CC1 [CBK283892] | 129.965% |
| CCn1cc(CN(C)Cc2ccon2)c2cc(C(=O)O)ncc21 [CBK307017] | 112.407% |
| COc1cc(/C=N/Nc2nnn[nH]2)cc2c1OCO2 [CBK262253] | 129.311% |
| O=C(N[C@@H](Cn1cc(Cl)c(=O)[nH]c1=O)C(=O)O)c1cccc(F)c1 [CBK289650] | 133.375% |
| CCC(C)NC(=O)c1ccccc1NS(=O)(=O)c1cc(C(=O)O)cs1 (centres unmarked) [CBK295652] | 139.791% |
| COc1cc(CN2CCN(c3cc(C)ccc3C)CC2)cc([N+](=O)[O-])c1O [CBK261868] | 118.481% |
| CC(Oc1ccc2c(c1)OCO2)C(=O)N1CCc2sccc2C1c1ccccc1 (centres unmarked) [CBK285549] | 125.192% |
| O=C(NCCCN1CCOCC1)Nc1ccccc1F [CBK269233] | 138.538% |
| Cc1cc(C)nc(SCC(=O)c2ccc(F)cc2)n1 [CBK092116] | 121.514% |
| O=C(c1ccco1)N1CCC(c2nnc(-c3ccccc3)c(-c3ccccc3)n2)CC1 [CBK286282] | 106.273% |
| Cc1nc(C2CCN(C(=O)c3ccnn3C)CC2)c2sccn12 [CBK285203] | 102.435% |
| CCNc1ncc(C(=O)N2CCC(Nc3cccnc3)CC2)s1 [CBK304047] | 131.918% |
| CN1CCCC1C(CCNC1CCCCC1)c1ccccc1 (centres unmarked) [CBK023921C] | 102.969% |

Another view of part of the listing above:
SMILES,% of control remaining
Cc1ccccc1N1C(=O)/C(=C/c2cn(Cc3ccccc3[N+](=O)[O-])c3ccccc23)SC1=S [CBK265101],134.643%
FC(F)(F)c1ccnc(OCCN2CCNCC2)c1 [CBK113459],118.264%
O=C(CSc1nsc(SCC(=O)c2ccccc2)n1)c1ccccc1 [CBK264142],71.9872%
NNc1nc(-c2ccccc2)cc(-c2ccc(Br)cc2)n1 [CBK261795],122.265%
CS(=O)(=O)Nc1ccc2cc(-c3ccc(Oc4ccccc4)cc3)cnc2n1 [CBK085674],100%
